# Data: US20050101595A1, “N-containing cycloalkyl-substituted amino-thiazole derivatives and pharmaceutical compositions for inhibiting cell proliferation and methods for their use” (PFIZER INC., priority 2003, published 2005)
# By UniProt entry, the sequences of proteins in these tests, tags left out. Residues count along the entry.
# UniProt P11802, whole entry: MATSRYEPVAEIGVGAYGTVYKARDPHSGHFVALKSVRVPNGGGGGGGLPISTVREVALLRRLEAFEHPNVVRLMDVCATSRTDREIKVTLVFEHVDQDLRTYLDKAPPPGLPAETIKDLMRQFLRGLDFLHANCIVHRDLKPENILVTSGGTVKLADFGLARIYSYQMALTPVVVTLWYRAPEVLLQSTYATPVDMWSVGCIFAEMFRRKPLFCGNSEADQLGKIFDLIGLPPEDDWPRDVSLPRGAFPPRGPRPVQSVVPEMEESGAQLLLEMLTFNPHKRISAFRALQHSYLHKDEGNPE
# UniProt P30281, 1-264 partner limits assumed: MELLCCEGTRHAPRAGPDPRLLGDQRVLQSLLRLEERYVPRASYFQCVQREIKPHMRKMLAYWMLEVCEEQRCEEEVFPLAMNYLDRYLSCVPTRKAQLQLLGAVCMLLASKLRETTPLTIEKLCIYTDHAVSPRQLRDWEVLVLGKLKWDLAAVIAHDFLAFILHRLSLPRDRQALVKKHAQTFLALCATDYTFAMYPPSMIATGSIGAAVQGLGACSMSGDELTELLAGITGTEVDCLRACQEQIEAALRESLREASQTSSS
# Molecular target: human CDK4 and genetically truncated (1-264) cyclin D3 (Homo sapiens, UniProt P11802)
# Assay: Inhibition of CDK4/Cyclin D Retinoblastoma Kinase Activity
# Conditions: read-out: CDK4 Ki; apparent Ki, CDK4/truncated cyclin D3, Rb fragment substrate, 25 μM ATP
structure (smiles),measurement,value
CN(C)CCNc1ccc(S(=O)(=O)N2CCC(Nc3nc(N)c(C(=O)c4c(F)cccc4F)s3)CC2)cn1,Ki,0.51 nM

# The match of structure and compound is tentative.
